From ChEMBL document CHEMBL2046388, “Synthesis and biological evaluation of novel anticancer bivalent colchicine-tubulizine hybrids” (Bioorg Med Chem, 2012)

Test system: HBL-100
Test: Antiproliferative activity against human HBL100 after 72 hrs by MTT assay
Assay type: functional, cell-based
Conditions: HBL-100, 72 h

With COc1cc2c(c(OC)c1OC)-c1ccc(OC)c(=O)cc1[C@@H](N)CC2 [DEACETYLCOLCHICINE] the IC50 was 45 nM.
